{"source": "PubChem BioAssay AID504467", "about": "(National Center for Advancing Translational Sciences (NCATS), 2011)", "note": "Screen size: about 330,000 compounds; about 7,700 (2.3%) were called active. Inconclusive means that the source gave no clear call. Such entries were picked first, then a sample of the others. The call rests on the fitted dose curve; in most records, active means well fitted inhibition curve with a large enough effect; inconclusive means small, poorly fitted or top-dose-only effect, or effect the other way; inactive means flat fitted curve, though single readings scatter. Potencies of inconclusive entries are doubtful fits and often do not repeat. On the % scale 0 is the no-effect control and ±100 the full control effect; potency means the concentration at half of the fitted maximal effect."}
{"test": "qHTS screen for small molecules that inhibit ELG1-dependent DNA repair in human embryonic kidney (HEK293T) cells expressing luciferase-tagged ELG1; further: nearly all actives have a fitted effect of over 55% in size", "details": "HEK293T ELG1-luciferase reporter, luminescence, 16 h, DNA damage induced by 5-fluorouridine; activity change, negative = inhibition: at 46.1 µM (top of the series)", "summary_of_the_method": "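Reporter activity after DNA damage by 5-fluorouridine is monitored. Compound-treated cells incubate 16 hr at 37 °C, then ONE-Glo is added for 30 min before luminescence reading.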"}
{"smiles": "NC(=O)N/N=C/c1ccc(OCc2cccc(Cl)c2)cc1", "Potency": "inconclusive: 11.6 µM [activator, partial curve]"}
{"smiles": "COc1cc(C(=O)NCc2ccc(C(=O)NCC(OC)OC)cc2)cc(OC)c1OC", "Potency": "inconclusive: 29.1 µM [activator, single point]"}
{"smiles": "N#CCOC(=O)c1cc(S(=O)(=O)N2CCCCC2)ccc1N1CCOCC1", "activity change, negative = inhibition": "inactive: 15.6%"}
{"smiles": "O=C1c2ccccc2-c2onc3ccc(N4CCCC4)c1c23", "Potency": "inconclusive: 13 µM [inhibitor, partial curve]"}
{"smiles": "C/C(=N/NC(=O)COc1cc(C)ccc1C(C)C)C(=O)O", "activity change, negative = inhibition": "inactive: -5.62%"}
{"smiles": "COc1cccc(NC(=O)c2ccc3c(c2)CCCC3)c1", "Potency": "inconclusive: 5.17 µM [activator, partial curve]"}
{"smiles": "O=c1[nH]c(/C=C/c2ccc(Br)cc2)nc2ccccc12", "Potency": "inconclusive: 1.16 µM [activator, full curve]"}
{"smiles": "C=CCn1c(-c2cccc(OC)c2)n[nH]c1=S", "activity change, negative = inhibition": "inactive: 2.65%"}
{"smiles": "COc1ccc(Cl)cc1NC(=O)c1cc(S(=O)(=O)N2CCCC2)cn1C", "Potency": "inconclusive: 16.4 µM [inhibitor, single point]"}
{"smiles": "Cc1ccccc1SCC(=O)NNC(=O)c1ccccc1O", "activity change, negative = inhibition": "inactive: -1.27%"}
{"smiles": "COc1ccc(C2C(C(=O)N3CCN(c4ccccn4)CC3)CC(=O)N2c2ccc(OC)cc2)cc1", "note": "(stereo not drawn)", "Potency": "inconclusive: 13 µM [inhibitor, partial curve]"}
{"smiles": "CC(NC(=O)C1CCCC1)C1CC2CCC1C2", "note": "(stereo not drawn)", "Potency": "active: 4.11 µM"}
{"smiles": "CC(=O)N1CCN(C(=O)CNC(=O)c2cccs2)CC1", "activity change, negative = inhibition": "inactive: 7.3%"}
{"smiles": "CC(Sc1nc(NC(C)(C)C)nc(N(C)C)n1)C(=O)Nc1ccccc1", "note": "(stereo not drawn)", "Potency": "inconclusive: 29.1 µM [inhibitor, single point]"}
{"smiles": "O=C(O)CN1C(=O)S/C(=C\\c2cccnc2)C1=O", "activity change, negative = inhibition": "inactive: 8.84%"}
{"smiles": "Cc1ncc([N+](=O)[O-])n1CCOC(=O)C12CC3CC(CC(C3)C1)C2", "activity change, negative = inhibition": "inactive: -1.77%"}
{"smiles": "O=C1CCC(C(=O)Nc2ccccc2)N1", "note": "(stereo not drawn)", "Potency": "inconclusive: 29.1 µM [activator, partial curve, poor fit]"}
{"smiles": "O=C1c2cccc3cccc(c23)C(=O)N1c1cccnc1", "activity change, negative = inhibition": "inactive: 0.806%"}
{"smiles": "O=c1c2ccccc2nc(/C=C/c2c[nH]c3ccccc23)n1-c1ccc([N+](=O)[O-])cc1", "Potency": "inconclusive: 5.17 µM [inhibitor, full curve]"}
{"smiles": "CC(C)Cn1c(=O)c2c(nc3n2CCCN3Cc2ccccc2)n(C)c1=O", "Potency": "inconclusive: 23.1 µM [inhibitor, partial curve, poor fit]"}
{"smiles": "Cc1cccc(CSc2nnc(NC(=O)c3ccco3)s2)c1", "activity change, negative = inhibition": "inactive: 1.1%"}
{"smiles": "COc1ccc(Cl)cc1NC(=O)CN1CCC(n2nnc3ccccc32)CC1", "Potency": "active: 7.31 µM"}
{"smiles": "Cc1cc(C)n2nc(C(=O)N/N=C/c3ccccc3Cl)nc2n1", "activity change, negative = inhibition": "inactive: 19.6%"}
{"smiles": "CSCCC(NS(=O)(=O)c1ccc(C)cc1)C(=O)N1CCCCCCC1", "note": "(stereo not drawn)", "activity change, negative = inhibition": "inactive: 1.25%"}
{"smiles": "CCCCCOc1ccc(Br)cc1CSC(=N)N", "Potency": "inconclusive: 2.31 µM [inhibitor, partial curve]"}
{"smiles": "O=[N+]([O-])c1ccc2nc(NS(=O)(=O)c3ccc(F)cc3)sc2c1", "activity change, negative = inhibition": "inactive: 3.38%"}
{"smiles": "CCC(=O)c1ccc(OCC(=O)NC2CCCC2)cc1", "Potency": "inconclusive: 14.6 µM [activator, partial curve]"}
{"smiles": "CN(Cc1ccc(OC(F)F)cc1)C(=O)C1CCN(S(=O)(=O)c2ccc3c(c2)OCCO3)CC1", "Potency": "active: 7.3 µM"}
{"smiles": "COc1cccc(NC(=O)c2ccc3c(c2)OCCO3)c1", "Potency": "inconclusive: 2.06 µM [activator, partial curve]"}
{"smiles": "COc1cc(-c2nnc(COC(=O)c3c4c(nc5ccccc35)CCCC4)o2)cc(OC)c1OC", "Potency": "inconclusive: 5.17 µM [inhibitor, full curve]"}
{"smiles": "COc1ccc(CC(=O)NNC(=O)CSc2nnc(Cc3ccc(OC)cc3)n2-c2ccccc2)cc1", "Potency": "inconclusive: 29.1 µM [activator, single point]"}
{"smiles": "CCC(=O)N1CCc2cc(Br)cc(S(=O)(=O)NC3CCN(Cc4ccccc4)CC3)c21", "Potency": "inconclusive: 18.3 µM [inhibitor, single point]"}
{"smiles": "Cc1cc(C)n(-c2ccc(Cl)c(C(=O)Nc3cc(C(F)(F)F)ccc3Cl)n2)n1", "activity change, negative = inhibition": "inactive: 1.79%"}
{"smiles": "COc1ccc(-n2nc(C(=O)Nc3nc4ccc(OC)cc4s3)c3ccccc3c2=O)cc1", "Potency": "inconclusive: 5.17 µM [inhibitor, partial curve, poor fit]"}
{"smiles": "CCOC(=O)c1c(NC(=O)C[n+]2ccc(Cc3ccccc3)cc2)sc(C)c1C", "Potency": "inconclusive: 29.1 µM [inhibitor, single point]"}
{"smiles": "O=C(C1CCCN(Cc2ccc(Br)cc2)C1)N1CCCCC1", "note": "(stereo not drawn)", "Potency": "inconclusive: 10.3 µM [inhibitor, partial curve, poor fit]"}
{"smiles": "CC(=O)c1csc(COc2ccccc2)n1", "Potency": "inconclusive: 20.6 µM [activator, partial curve]"}
{"smiles": "CC(C)Oc1ccc(CSc2ncn[nH]2)cc1", "Potency": "inconclusive: 16.4 µM [activator, partial curve]"}
{"smiles": "CC1(C)CC(=O)c2sc(NC(=O)C3COc4ccccc4O3)nc2C1", "note": "(stereo not drawn)", "Potency": "inconclusive: 23.1 µM [activator, partial curve]"}
{"smiles": "Cc1cccc(C)c1NC(=O)CSc1nnc(-c2ccccc2)n1Cc1ccc2c(c1)OCO2", "Potency": "inconclusive: 25.1 µM [inhibitor, single point]"}
{"smiles": "COc1cc(OC)cc(C(=O)Nc2cc(NC(=O)c3ccco3)ccc2OC)c1", "Potency": "active: 20.6 µM"}
{"smiles": "O=C(COc1ccc(Cl)cc1)NNC(=O)C(=O)NC1CCCCC1", "Potency": "inconclusive: 25.9 µM [inhibitor, single point]"}
{"smiles": "Oc1cccc(/C=N/N2CCN(c3ccccn3)CC2)c1", "Potency": "inconclusive: 23.1 µM [activator, partial curve]"}
{"smiles": "CCCCn1c(-c2csc(C(C)C)c2)n[nH]c1=S", "activity change, negative = inhibition": "inactive: 1.59%"}
{"smiles": "CC(C)OC(=O)c1c2c(n3ccccc13)C(=O)c1ccccc1C2=O", "Potency": "active: 18.4 µM"}
{"smiles": "COc1ccc(C2(C)NC(=O)N(CC(=O)c3cc(C)n(C4CC4)c3C)C2=O)cc1OC", "note": "(stereo not drawn)", "activity change, negative = inhibition": "inactive: -13.9%"}
{"smiles": "Cc1[nH]c2c(C(=O)N3CCCC(CCC(=O)NCc4ccccc4F)C3)cccc2c1C", "note": "(stereo not drawn)", "Potency": "inconclusive: 23.1 µM [inhibitor, single point]"}
{"smiles": "CC(C)c1ccc(NC(=S)NC2CCN(Cc3ccccc3)CC2)cc1", "activity change, negative = inhibition": "inactive: -5.47%"}
{"smiles": "Cc1cc(O)c(C(C[N+](=O)[O-])c2ccc(Cl)cc2)c(=O)o1", "note": "(stereo not drawn)", "activity change, negative = inhibition": "inactive: -0.257%"}
{"smiles": "CCOC(=O)N1CCN(C(=O)c2cn(CC)c3ccc(S(=O)(=O)N4CC(C)CC(C)C4)cc3c2=O)CC1", "note": "(stereo not drawn)", "activity change, negative = inhibition": "inactive: -4.01%"}
{"smiles": "Cn1cc(Cl)c(C(=O)Nc2cccc(Cl)c2Cl)n1", "Potency": "inconclusive: 29.1 µM [inhibitor, single point]"}
{"smiles": "COC(CSc1ncnc2c1oc1nc3c(cc12)COC(C)(C)C3)OC", "Potency": "inconclusive: 29.1 µM [inhibitor, single point]"}
{"smiles": "COc1ccc(-c2nn(-c3ccccc3)cc2C(=O)Nc2ccc(C(=O)O)cc2)cc1", "activity change, negative = inhibition": "inactive: -8.65%"}
{"smiles": "CCOC(=O)c1sc2nc(CC(=O)OC)nc(NCc3ccc(F)cc3)c2c1C", "Potency": "inconclusive: 11.2 µM [inhibitor, partial curve, poor fit]"}
{"smiles": "CCN(CC)CCNC(=O)c1cc2c(-c3ccc(Cl)cc3)nn(C)c2s1", "Potency": "inconclusive: 25.9 µM [activator, single point]"}
{"smiles": "O=C1CCCN1CCC(=O)N1CCCC(Nc2ccc(F)c(F)c2)C1", "note": "(stereo not drawn)", "Potency": "inconclusive: 29.1 µM [activator, partial curve, poor fit]"}
{"smiles": "CCCCN(C(=O)CSc1nc2ccccc2n1CC)C1CCS(=O)(=O)C1", "note": "(stereo not drawn)", "Potency": "inconclusive: 20.6 µM [activator, single point]"}
{"smiles": "COc1ccccc1NC(=O)OC(C)c1ccc(Cl)cc1", "note": "(stereo not drawn)", "activity change, negative = inhibition": "inactive: -3.6%"}
{"smiles": "CCCC(=O)Nc1ccc2c(c1)nc(CCNC(=O)c1ccccc1)n2C", "activity change, negative = inhibition": "inactive: -2.6%"}
{"smiles": "Cc1ccc(C)c(N2CCN(C(=O)c3ccc(NS(=O)(=O)c4c(C)noc4C)cc3)CC2)c1", "Potency": "inconclusive: 25.9 µM [inhibitor, single point]"}
{"smiles": "COc1ccc(-n2cc3c(-c4cccc(Br)c4)nnc(C)c3n2)cc1", "Potency": "inconclusive: 29.1 µM [inhibitor, single point]"}
{"smiles": "C=CCn1c(SCc2cc(C(C)=O)ccc2OCC)nc2ccccc2c1=O", "Potency": "inconclusive: 0.58 µM [inhibitor, full curve]"}
{"smiles": "O=S(=O)(Nc1ccc2c(c1)nc1n2CCN(Cc2ccccc2)C1)c1ccc(Cl)cc1", "Potency": "inconclusive: 2.59 µM [inhibitor, partial curve, poor fit]"}
{"smiles": "COC(=O)c1[nH]c2cc(C)ccc2c1NC(=O)CN1CCc2cc(OC)c(OC)cc2C1", "Potency": "active: 14.6 µM"}
{"smiles": "COc1ccc(CNc2nc(-c3ccccc3)nc3ccccc23)cc1OC", "Potency": "inconclusive: 29.1 µM [inhibitor, single point]"}
{"smiles": "Cc1cc(Cl)ccc1N(CC(=O)NCc1ccc2c(c1)OCO2)S(C)(=O)=O", "activity change, negative = inhibition": "inactive: 1.2%"}
{"smiles": "O=S(=O)(c1ccc(F)cc1)N1CCN(c2ccc(-c3ccccc3)nn2)CC1", "activity change, negative = inhibition": "inactive: 7.62%"}
{"smiles": "CC1(C)CC(NC(=O)c2coc(=O)c(Br)c2)CC(C)(C)N1", "Potency": "inconclusive: 16.4 µM [activator, single point]"}
{"smiles": "Cc1ccc(C)c(C(=O)CC2(O)C(=O)N(C)c3ccccc32)c1", "note": "(stereo not drawn)", "activity change, negative = inhibition": "inactive: -1.65%"}
{"smiles": "COc1ccc(CNC(=O)c2cc(C3CC3)nc3c2cnn3C(C)C)cc1OC", "Potency": "inconclusive: 20.6 µM [inhibitor, single point]"}
{"smiles": "C/C(=N\\OC(=O)Nc1ccccc1)c1cnn(-c2cc(C(F)(F)F)cc(C)n2)c1C", "activity change, negative = inhibition": "inactive: 2.79%"}
{"smiles": "CC1CC(C)CN(CCCNC(=O)c2ccc3c(c2)N(Cc2ccccc2)C(=O)c2ccccc2S3=O)C1", "note": "(stereo not drawn)", "activity change, negative = inhibition": "inactive: -0.256%"}
{"smiles": "CCOc1ccc(NC(=O)Cn2ncc3ccccc32)cc1", "Potency": "inconclusive: 20.6 µM [activator, single point]"}
